Experimental data from the supplement of paper PMC10338343.
± gives the standard deviation. Only a part is listed here, and it is no random draw. The uncertainty is large for many entries.

System: MIWI (PIWIL1) piRISC loaded with piRNA #2 (30 nt)
Test: pre-steady-state target cleavage rate (min^-1); MIWI and MILI are mouse PIWI proteins and EfPiwi is from a freshwater sponge; tags in brackets are library labels; higher = faster piRNA-guided slicing of the target
Settings: guide: piRNA #2 5'p-UUAGGUAACCCAGUAGAUCCAGAGGAAUUC; auxiliary factor: 500 nM mouse GTSF1
Summary of the method: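 Three pooled Cleave-'n-Seq trials supplied the data, with k3 capped at 0.0001 min^-1. In each, […] transcribed, DNA-blocked target RNA library and 1 nM active affinity-purified piRISC with one synthetic guide reacted in HEPES–potassium acetate buffer at 33 °C for 0–8 or 0–960 min, with or without 500 nM GTSF1 partner protein. Uncleaved targets were sequenced and normalised to depth and to weakly complementary targets. A burst-and-steady-state fit provided the pre-steady-state cleavage rate.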
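Note: 1 nM active piRISC with 0.1 nM target library at 33 °C single turnover.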

Row | Sequence | pre-steady-state target cleavage rate
1 | CUUAAGGAGACCAUCUAACUGGGUUACCUAA | 0.000909 ± 0.0068
2 | CUUAAGGAGACCUUCUACUGGGAUUCCUAA | 0.00107 ± 0.008
3 | CUUAAGGAGACCUAGAUGACCGUUACCUUA | 0.000231 ± 0.025
4 | CUUAAGGACUGGAUCUACUGGCAUACCUAA | 0.00297 ± 0.014
5 | CUUAAGGAGUGGAUCUACGUGGGUUACCUAA | 0.000227 ± 0.036
6 | CUUAAGGAGACCUAGAACCUGGGUUACCUAA | 0.000117 ± 0.023
7 | CUUAAGGAGACCAUGUACUGGCUUACCUAA | 0.000125 ± 0.031
8 | CUUAAGGAGACCUACGUACUGGGUUACCUAA | 0.00075 ± 0.011
9 | CAAUUCCUCUGGAUCUACUGAGGUUACCUAA | 0.00648 ± 0.0048
10 | CAAUUCCUCUGGAUCUACUAGGGUUACCUAA | 0.00464 ± 0.0052
11 | CUUAAGGAGUCGAUCUACUGGGUUUCCUAA | 0.000488 ± 0.012
12 | CUUAAGGAGACCUUGUACUGGGUAACCUAA | 0.000332 ± 0.019
13 | CUUAAGGAGACCAUCUACUGGGUAAGCUAA | 0.000584 ± 0.013
14 | CUUAAGGAGACCAUCUACUGGGUUGACCUAA | 0.00166 ± 0.0072
15 | CUUAAGGAGACCAUGUACUGGGUUACGUAA | 0.000322 ± 0.0089
16 | CUUAAGGAGACCUAGAUGACGGUUACCUAAA | 0.000125 ± 0.03
17 | CUUAACCUCUGGAUCUACUGGGUUACUAA | 0.116 ± 0.018
18 | CAAUUCCUCUCGAUCUACUGGGUUACCUAA | 0.822 ± 0.063
19 | CUUAAGCUCUGGAUCUACUCGCUUACCUAA | 0.00339 ± 0.0048
20 | CUUAAGGACUGGAUCUACUGCGAUACCUAA | 0.0164 ± 0.02

Row | Sequence | pre-steady-state target cleavage rate
21 | CUUAAGGACUGGAUCAACUGGGAUACCUAA | 0.0079 ± 0.011
22 | CUUAAGGAGAGGUUCUACUGGGUUAGCUAA | 0.0013 ± 0.0059
23 | CUUAAGGAGACCUAGAUGACCCAUACCUAG [g2:g7:cont:t1G] | 0.000183 ± 0.032
24 | CUUAAGGAGACCUAGAUCUGGAGUUACCUAA | 0.00068 ± 0.015
25 | CUUAAGGAGACGAUCUACAGGGUUAGCUAA | 0.00122 ± 0.006
26 | CUUAAGGAGACCUUCUACUGCGUUACCAAA | 0.000886 ± 0.0072
27 | CUUAAGGAGACCUUCUACUGGGAUACGUAA | 0.000559 ± 0.012
28 | CUUAAGGACUGGAACUACUGGGAUACCUAA | 0.0152 ± 0.016
29 | CUUAAGGAGAGGAUCUUCUGGGUUACCUUA | 0.000836 ± 0.013
30 | CUUAAGGACUGGAUCAACUGGGUUUCCUAA | 0.0071 ± 0.0085
31 | CUUAAGGACUGGAUGUUCUGGGUUACCUAA | 0.00493 ± 0.014
32 | CUUAUCCUCUGGAUCUACUGUGUUACCUAA | 0.722 ± 0.074
33 | CAAUUCCUCUGGAACUACUCGGUUACCUAA | 0.157 ± 0.022
34 | CUUAAGGAGACCUUCUCUGGGUUACCUAA | 0.00177 ± 0.0076
35 | CUUAAGGAGAGCAUCUACUGGGUUACCUUA | 0.0033 ± 0.0034
36 | CUUAAGGAGUGGAUCAUACUGGGUUACCUAA | 0.00035 ± 0.02
37 | CUUAAGGAGACCAUGAUCUGGGUUACCUAA | 0.000822 ± 0.0068
38 | CUUAAGGAGACGAUCUACUGGGUUCACCUAA | 0.00176 ± 0.0063
39 | CUUAAGGUCUGGAUCUACUGGCAAACCUAA | 0.00133 ± 0.011

Exported as labelled records: entries from further up.
CAAUUCCUCUGGAUCUACUAGGGUUACCUAA
  pre-steady-state target cleavage rate = 0.00464 ± 0.0052
CUUAACCUCUGGAUCUACUGGGUUACUAA
  pre-steady-state target cleavage rate = 0.116 ± 0.018
